The values below come from PMC3164636.

The chains behind the UniProt entries cited, without tags or fusion partners. Residues count along the entry.
UniProt O97302, residues 20-1086: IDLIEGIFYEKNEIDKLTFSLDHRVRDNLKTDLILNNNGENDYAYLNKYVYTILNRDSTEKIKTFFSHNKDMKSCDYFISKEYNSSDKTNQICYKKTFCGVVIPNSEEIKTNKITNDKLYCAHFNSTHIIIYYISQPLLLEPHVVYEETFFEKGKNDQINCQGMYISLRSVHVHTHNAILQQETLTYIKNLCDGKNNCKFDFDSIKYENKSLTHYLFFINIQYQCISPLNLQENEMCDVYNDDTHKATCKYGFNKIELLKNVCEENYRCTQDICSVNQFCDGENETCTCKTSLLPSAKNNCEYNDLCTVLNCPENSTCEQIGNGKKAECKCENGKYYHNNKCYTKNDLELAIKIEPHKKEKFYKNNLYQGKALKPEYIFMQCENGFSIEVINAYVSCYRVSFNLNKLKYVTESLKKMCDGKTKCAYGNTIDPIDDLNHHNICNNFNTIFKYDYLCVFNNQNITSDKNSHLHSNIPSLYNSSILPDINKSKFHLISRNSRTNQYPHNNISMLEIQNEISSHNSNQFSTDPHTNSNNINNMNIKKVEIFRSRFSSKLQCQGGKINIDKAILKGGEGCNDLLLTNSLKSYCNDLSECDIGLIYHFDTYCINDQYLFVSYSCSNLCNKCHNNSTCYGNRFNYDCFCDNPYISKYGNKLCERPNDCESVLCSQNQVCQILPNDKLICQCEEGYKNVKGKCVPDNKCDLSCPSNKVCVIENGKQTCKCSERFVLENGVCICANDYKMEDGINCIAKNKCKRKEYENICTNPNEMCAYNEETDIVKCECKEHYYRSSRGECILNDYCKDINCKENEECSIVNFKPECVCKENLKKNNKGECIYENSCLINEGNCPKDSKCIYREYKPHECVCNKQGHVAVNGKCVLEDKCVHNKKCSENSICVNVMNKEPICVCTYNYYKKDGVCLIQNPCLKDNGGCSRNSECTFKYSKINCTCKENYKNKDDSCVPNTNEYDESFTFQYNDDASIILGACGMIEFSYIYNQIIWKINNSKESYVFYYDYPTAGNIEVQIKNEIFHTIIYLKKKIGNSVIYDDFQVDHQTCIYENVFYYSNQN
UniProt Q8IFM5, residues 25-526: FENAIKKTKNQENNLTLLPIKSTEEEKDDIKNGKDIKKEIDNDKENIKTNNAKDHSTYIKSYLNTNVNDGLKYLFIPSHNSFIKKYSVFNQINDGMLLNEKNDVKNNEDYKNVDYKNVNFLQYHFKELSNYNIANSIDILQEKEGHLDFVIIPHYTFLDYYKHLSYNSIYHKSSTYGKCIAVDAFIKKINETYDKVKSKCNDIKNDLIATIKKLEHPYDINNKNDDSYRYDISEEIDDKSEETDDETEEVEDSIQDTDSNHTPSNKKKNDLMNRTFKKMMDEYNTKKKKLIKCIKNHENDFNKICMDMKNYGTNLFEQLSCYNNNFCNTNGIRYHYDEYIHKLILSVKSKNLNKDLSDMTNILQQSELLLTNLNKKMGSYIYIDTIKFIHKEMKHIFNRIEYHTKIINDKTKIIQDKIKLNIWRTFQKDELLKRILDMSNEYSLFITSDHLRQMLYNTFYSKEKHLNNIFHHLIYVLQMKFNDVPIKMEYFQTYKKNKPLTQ

Results are given in words; binding and its absence hold for the method and conditions named. Binding seen in cells or lysates may run through a third protein. Some results given as binding are weak or reduced against the parent protein; the word gives no strength.

The target in assay [1] is PfRiprHA, HA-tagged P. falciparum Rh5 interacting protein (Plasmodium falciparum (3D7RiprHA line)) (UniProt O97302). Nature of the assay: co-IP; proteins solubilised from saponin pellets of 3D7RiprHA schizonts (2% n-Dodecyl-N,N-Dimethylamine-N-Oxide in PBS); precipitation with anti-HA antibody beads; blots with monoclonal anti-PfRh5 or rabbit anti-PfRipr/3; 3D7 as control.

Assay [2] addresses PfRh5, full-length mature protein (approximately 63 kDa) (Plasmodium falciparum (endogenous in the 3D7RiprHA line)) (UniProt Q8IFM5). Nature of the assay: co-IP; proteins solubilised from saponin pellets of 3D7RiprHA schizonts; precipitation with monoclonal anti-PfRh5 antibody; blots with anti-HA and anti-PfRh2a/b.

In the case of “PfRh5, full-length mature protein (approximately 63 kDa) (from UniProt Q8IFM5 25-526)”, the binding result in assay [1] was “binds”.

Take “PfRiprHA, HA-tagged P. falciparum Rh5 interacting protein (from UniProt O97302 20-1086)”: the binding entry in assay [2] is given as “binds”.
